Measurements published in patent US10610487B2, “Salts of active ingredients with polymeric counterions” (BASF SE, priority 2015, dated 2020).
Converted amounts (≈) assume the structure as drawn.

Test: physchem
Conditions: thermodynamic from solid

solubility thermodynamic at 72 h (simulated gastric fluid): 2100 µg/mL (≈ 5700 µM) | solubility thermodynamic at 72 h (water): 0.9 µg/mL (≈ 2.44 µM)
Compound: C(=C\c1ccccc1)/CN1CCN(C(c2ccccc2)c2ccccc2)CC1 [Cinnarizine, cinnarizine]
